For some assays here: No signal at the amounts used counts as a negative. For some assays here: Tags and fusion partners may be left off the protein sequences shown. For some assays here: Construct, isoform or probe ends are uncertain for at least one entry. For some assays here: Where cells or extracts were used, other partners may take part. For some assays here: The direction of at least one scale is not stated here.
Key:
myoglobin = myoglobin (UniProt P02192); assay: ELISA; conditions: raw beef suspension; 5' biotin; ELISA: suspension coated in 100 mM NaHCO3 pH 9.6, 5% CSA block, aptamer in Base Pair Aptamer Folding Buffer, washes 0.02% Tween-20 in PBS; protein in an extract; label: 5' biotin; single-stranded DNA
[1] = system: gelatin (collagen) (bovine skin); assay: immunofluorescence microscopy; conditions: gelatin cooked, aged ceramic shard; 5' biotin; microscopy: aptamer overnight at room temperature, wash PBS + 5 mM MgCl2; native protein; label: 5' biotin; single-stranded DNA
hemoglobin = assay: immunofluorescence microscopy; conditions: haemoglobin cooked, aged ceramic shard; 5' biotin; microscopy: aptamer overnight at room temperature, wash PBS + 5 mM MgCl2; commercial protein; label: 5' biotin; single-stranded DNA
lysozyme (chicken) [2] = target: lysozyme (chicken) (UniProt P00698); assay: immunofluorescence microscopy; conditions: lysozyme cooked, aged ceramic shard; 5' biotin; microscopy: aptamer overnight at room temperature, wash PBS + 5 mM MgCl2; commercial protein; label: 5' biotin; single-stranded DNA
ovalbumin = target: T1, ovalbumin (UniProt P01012); assay: immunofluorescence microscopy; conditions: ovalbumin cooked, aged ceramic shard; 5' biotin; microscopy: aptamer overnight at room temperature, wash PBS + 5 mM MgCl2; commercial protein; label: 5' biotin; single-stranded DNA
T1 sequence (looked up, limits assumed): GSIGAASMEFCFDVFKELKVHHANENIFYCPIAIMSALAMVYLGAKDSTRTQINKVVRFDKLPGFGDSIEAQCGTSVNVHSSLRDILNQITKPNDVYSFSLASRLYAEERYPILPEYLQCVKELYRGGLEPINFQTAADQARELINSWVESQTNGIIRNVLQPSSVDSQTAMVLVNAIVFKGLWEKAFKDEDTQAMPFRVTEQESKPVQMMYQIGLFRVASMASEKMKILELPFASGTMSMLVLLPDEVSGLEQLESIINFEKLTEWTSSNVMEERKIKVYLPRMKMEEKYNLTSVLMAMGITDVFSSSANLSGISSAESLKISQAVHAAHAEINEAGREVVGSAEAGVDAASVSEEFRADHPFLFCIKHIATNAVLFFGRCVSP

By UniProt entry, the sequences of proteins in these tests, tags left out. Residues count along the entry.
UniProt P02192, 2-154: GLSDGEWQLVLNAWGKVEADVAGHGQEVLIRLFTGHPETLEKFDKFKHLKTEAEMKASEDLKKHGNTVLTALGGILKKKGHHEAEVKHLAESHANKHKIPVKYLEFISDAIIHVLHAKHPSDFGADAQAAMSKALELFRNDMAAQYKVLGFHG

lysozyme (chicken) [3] = target: lysozyme (chicken) (UniProt P00698); assay: ELISA; conditions: signal at MilliQ control level; 5' biotin; ELISA: suspension coated in 100 mM NaHCO3 pH 9.6, 5% CSA block, aptamer in Base Pair Aptamer Folding Buffer, washes 0.02% Tween-20 in PBS; commercial protein; label: 5' biotin; single-stranded DNA; counted as no binding
[4] = target: bovine serum albumin (bovine) (UniProt P02769); assay: ELISA; conditions: BSA 10 ug/ml; 5' biotin; ELISA: suspension coated in 100 mM NaHCO3 pH 9.6, 5% CSA block, aptamer in Base Pair Aptamer Folding Buffer, washes 0.02% Tween-20 in PBS; commercial protein; label: 5' biotin; single-stranded DNA; counted as no binding

CCCTCCTTTCCTTCGACGTAGATCTGCTGCGTTGTTCCGA [Mb1]
binding signal (myoglobin): 0.488 OD405

ATCCGTCACACCTGCTCTAGACGAATATTGTATCCTCATTAGATCAAAAACGGGTGGTGTTGGCTCCCGTAT [CTx 2R (CTx 2R-2h)]
binding result [1]: no binding

ACGCACACCAGAGACAAGTAGCCCCCCAAACGCG [G15 T1]
binding result (hemoglobin): no binding

GGCAGGAAGACAAACACCAGGTGAGGGAGACGACGCGAGTGTTAGATGGTAGCTGTTGGTCTGTGGTGCTGT [Hb]
binding result (hemoglobin): no binding

AGCAGCACAGAGGTCAGATGGCAGCTAAGCAGGCGGCTCACAAAACCATTCGCATGCGGCCCTATGCGTGCTACCGTGAA [Apt1L]
binding result (lysozyme (chicken) [2]): no binding
binding result (ovalbumin): no binding
binding signal (lysozyme (chicken) [3]): 0.037 OD405

TTTTTGGTTGACGGCAGTCGGCGGTATGCGCATATCGTGTTGGTA [D1]
binding result [1]: binds

TTAGCGAGCTGCACACACAATGGACTCGTCATACCGTGCTGTTT [HA]
binding result (hemoglobin): binds

ATCAGGGCTAAAGAGTGCAGAGTTACTTAG [Clone1]
binding result (ovalbumin): no binding
binding signal [4]: 0.027 OD405
